Test results taken from PubChem BioAssay (EPA / NIEHS).
The shares of active, inactive and inconclusive entries below differ from those in the screen. For some assays here: A potency beside an inconclusive call is a rough fit, not a confirmed value. The source made the active and inactive calls. Rule for the calls: active = hit-call score of the fitted dose curve at least 0.9, where 1 is the maximum; inconclusive = response in the unintended direction; inactive = score below 0.9.

The chains behind the UniProt entries cited, without tags or fusion partners. Where a name states a change or a piece, a line headed by the entry shows the natural chain unless it says otherwise.
UniProt P07948: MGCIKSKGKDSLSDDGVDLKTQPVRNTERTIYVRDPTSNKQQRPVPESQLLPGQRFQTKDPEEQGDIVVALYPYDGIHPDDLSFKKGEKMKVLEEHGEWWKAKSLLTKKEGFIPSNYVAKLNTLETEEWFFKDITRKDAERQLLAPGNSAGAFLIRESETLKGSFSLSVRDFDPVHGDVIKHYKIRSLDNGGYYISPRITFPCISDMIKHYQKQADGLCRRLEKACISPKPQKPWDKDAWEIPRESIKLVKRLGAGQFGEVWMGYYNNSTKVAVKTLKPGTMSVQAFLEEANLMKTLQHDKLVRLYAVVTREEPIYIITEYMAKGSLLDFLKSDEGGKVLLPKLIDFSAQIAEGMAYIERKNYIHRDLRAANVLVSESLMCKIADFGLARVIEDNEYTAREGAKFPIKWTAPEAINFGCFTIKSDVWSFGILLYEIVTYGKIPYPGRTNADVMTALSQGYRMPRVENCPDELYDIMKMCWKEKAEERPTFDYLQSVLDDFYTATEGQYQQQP
UniProt P27361, whole entry, looked up: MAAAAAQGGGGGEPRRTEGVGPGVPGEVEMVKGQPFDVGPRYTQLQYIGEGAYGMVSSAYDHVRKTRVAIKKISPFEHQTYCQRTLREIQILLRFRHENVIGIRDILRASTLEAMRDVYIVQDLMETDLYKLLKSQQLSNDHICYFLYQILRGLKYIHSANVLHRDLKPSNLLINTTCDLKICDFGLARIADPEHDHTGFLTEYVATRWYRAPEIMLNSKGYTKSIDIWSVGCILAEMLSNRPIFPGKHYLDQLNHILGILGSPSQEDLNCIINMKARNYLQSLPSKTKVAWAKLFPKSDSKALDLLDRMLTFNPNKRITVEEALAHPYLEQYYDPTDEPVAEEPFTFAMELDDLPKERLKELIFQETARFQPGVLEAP
UniProt P27815: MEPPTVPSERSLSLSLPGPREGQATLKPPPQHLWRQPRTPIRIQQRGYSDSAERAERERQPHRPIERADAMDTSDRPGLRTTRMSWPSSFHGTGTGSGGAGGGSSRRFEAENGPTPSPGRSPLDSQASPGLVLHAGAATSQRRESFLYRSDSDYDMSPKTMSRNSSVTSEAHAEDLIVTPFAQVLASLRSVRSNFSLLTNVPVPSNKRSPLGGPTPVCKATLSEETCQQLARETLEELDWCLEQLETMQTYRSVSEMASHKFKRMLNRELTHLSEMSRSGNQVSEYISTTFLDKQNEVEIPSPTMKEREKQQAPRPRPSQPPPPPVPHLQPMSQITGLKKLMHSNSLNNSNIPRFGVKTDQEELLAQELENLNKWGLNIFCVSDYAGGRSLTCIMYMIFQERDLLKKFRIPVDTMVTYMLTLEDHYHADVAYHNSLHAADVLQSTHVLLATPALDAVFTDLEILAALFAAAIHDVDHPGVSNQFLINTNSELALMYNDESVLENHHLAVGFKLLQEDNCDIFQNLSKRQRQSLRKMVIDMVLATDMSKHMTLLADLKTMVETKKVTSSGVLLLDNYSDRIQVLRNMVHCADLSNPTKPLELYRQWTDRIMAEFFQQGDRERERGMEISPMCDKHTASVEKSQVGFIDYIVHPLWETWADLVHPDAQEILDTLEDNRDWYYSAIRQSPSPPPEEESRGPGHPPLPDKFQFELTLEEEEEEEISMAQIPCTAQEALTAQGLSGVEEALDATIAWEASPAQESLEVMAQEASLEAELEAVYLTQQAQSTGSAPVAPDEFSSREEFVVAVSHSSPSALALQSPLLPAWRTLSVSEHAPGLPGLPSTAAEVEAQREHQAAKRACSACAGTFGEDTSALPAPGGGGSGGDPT
UniProt O75582, whole entry, looked up: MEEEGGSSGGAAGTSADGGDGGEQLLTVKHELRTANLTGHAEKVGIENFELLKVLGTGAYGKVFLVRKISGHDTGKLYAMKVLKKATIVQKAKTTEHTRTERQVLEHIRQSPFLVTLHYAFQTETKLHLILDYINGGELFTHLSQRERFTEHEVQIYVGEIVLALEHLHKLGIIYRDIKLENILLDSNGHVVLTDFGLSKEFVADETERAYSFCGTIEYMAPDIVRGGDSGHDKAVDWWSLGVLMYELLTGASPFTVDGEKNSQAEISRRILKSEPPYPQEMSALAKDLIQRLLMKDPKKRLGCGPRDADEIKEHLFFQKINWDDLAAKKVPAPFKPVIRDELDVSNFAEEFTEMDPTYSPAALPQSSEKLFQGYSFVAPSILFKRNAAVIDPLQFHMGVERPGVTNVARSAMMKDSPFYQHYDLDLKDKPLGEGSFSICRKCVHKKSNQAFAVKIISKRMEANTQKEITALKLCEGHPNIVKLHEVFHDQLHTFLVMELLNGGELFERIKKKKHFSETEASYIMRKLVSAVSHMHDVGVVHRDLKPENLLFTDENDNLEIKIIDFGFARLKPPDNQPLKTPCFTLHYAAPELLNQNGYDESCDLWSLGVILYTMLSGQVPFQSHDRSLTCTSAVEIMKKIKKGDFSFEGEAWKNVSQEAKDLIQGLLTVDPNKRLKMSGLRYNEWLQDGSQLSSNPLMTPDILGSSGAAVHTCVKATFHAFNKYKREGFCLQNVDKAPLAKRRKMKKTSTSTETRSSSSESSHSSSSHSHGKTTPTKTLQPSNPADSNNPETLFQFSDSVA
UniProt P14780: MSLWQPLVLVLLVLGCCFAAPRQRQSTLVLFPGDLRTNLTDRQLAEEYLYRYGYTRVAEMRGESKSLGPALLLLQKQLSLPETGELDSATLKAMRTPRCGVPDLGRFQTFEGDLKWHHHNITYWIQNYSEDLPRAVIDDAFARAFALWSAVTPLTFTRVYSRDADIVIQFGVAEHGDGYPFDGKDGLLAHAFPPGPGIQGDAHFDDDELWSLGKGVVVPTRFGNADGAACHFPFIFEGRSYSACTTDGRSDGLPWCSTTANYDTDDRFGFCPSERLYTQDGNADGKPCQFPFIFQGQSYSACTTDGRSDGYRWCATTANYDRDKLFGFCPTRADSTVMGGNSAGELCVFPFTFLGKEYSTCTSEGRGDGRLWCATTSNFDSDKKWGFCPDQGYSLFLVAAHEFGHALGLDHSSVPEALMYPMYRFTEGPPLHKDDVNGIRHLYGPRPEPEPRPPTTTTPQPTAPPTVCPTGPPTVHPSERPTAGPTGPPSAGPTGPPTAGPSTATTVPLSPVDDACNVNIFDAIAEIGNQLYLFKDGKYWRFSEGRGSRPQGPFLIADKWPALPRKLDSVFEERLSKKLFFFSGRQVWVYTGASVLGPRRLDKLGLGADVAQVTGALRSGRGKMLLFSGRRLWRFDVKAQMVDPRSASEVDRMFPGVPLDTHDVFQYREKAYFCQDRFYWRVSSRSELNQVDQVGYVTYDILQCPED
UniProt P09237: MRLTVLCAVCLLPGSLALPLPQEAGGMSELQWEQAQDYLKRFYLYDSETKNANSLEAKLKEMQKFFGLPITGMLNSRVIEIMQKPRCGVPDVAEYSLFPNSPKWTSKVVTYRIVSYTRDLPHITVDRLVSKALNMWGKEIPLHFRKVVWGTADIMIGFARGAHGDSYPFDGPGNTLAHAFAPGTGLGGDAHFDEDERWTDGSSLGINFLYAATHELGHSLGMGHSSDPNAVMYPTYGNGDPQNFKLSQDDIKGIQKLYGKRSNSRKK
UniProt P08254: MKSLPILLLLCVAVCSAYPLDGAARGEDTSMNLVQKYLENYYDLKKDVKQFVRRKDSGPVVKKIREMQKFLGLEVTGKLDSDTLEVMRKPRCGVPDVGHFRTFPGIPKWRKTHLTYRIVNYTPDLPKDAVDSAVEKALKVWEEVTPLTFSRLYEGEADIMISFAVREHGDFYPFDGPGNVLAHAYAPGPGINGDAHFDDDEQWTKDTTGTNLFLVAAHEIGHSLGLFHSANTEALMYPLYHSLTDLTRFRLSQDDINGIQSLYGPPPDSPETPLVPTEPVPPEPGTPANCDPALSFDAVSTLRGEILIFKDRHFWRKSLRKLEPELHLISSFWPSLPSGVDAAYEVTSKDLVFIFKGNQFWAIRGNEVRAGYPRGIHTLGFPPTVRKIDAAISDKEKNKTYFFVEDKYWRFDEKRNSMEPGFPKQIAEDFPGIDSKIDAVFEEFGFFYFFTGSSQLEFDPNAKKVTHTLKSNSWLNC

Assays:
[1] = molecular target: human LYN Proto-Oncogene, Src family Tyrosine Kinase (LynA), LYN (gene 4067) (UniProt P07948); assay: NVS_ENZ_hLynA: NovaScreen (NVS) Enzymatic Assay for human LYN Proto-Oncogene, Src family Tyrosine Kinase (LynA) (AID 2283173)
Summary of the method: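 Recombinant kinase with fluorescent substrate; product separated from substrate by electrophoretic mobility shift and read 1 h after dosing. Duplicate screen at 25 uM, then concentration-response up to 50 uM; activity scored as signal loss against DMSO.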

[2] = molecular target: cAMP-dependent protein kinase catalytic subunit alpha (Homo sapiens) (UniProt P17612); assay: NVS_ENZ_hPKA: NovaScreen (NVS) Enzymatic Assay for human Protein Kinase A (PKA) (AID 2283192)
Summary of the method: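 Recombinant human PKA with specific fluorescent substrate, product separated by electrophoretic mobility shift, read 1 h after dosing. Primary screen at 25 uM in duplicate; actives then run in concentration-response up to 50 uM, activity relative to DMSO.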

[3] = molecular target: Mitogen-activated protein kinase 3 (Homo sapiens) (UniProt P27361); assay: NVS_ENZ_hMAPK3: NovaScreen (NVS) Enzymatic Assay for human Mitogen-Activated Protein Kinase 3 (MAPK 3) (AID 2283177)
Summary of the method: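 Cell-free enzymatic assay with recombinant protein and specific substrate; fluorescence and electrophoretic mobility shift read-out 1 h after dosing. Primary screen duplicate at 25 uM; actives then run in concentration-response up to 50 uM, loss of signal versus DMSO.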

[4] = molecular target: human Phosphodiesterase 4A1 (PDE4A1), PDE4A (gene 5141) (UniProt P27815); assay: NVS_ENZ_hPDE4A1: NovaScreen (NVS) Enzymatic Assay for human Phosphodiesterase 4A1 (PDE4A1) (AID 2283191)
Summary of the method: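 Cell-free recombinant human PDE4A1 with fluorescent substrate; product separated by electrophoretic mobility shift, 1 h. Screened at 25 uM, then up to 50 uM in concentration-response; loss of signal fitted against DMSO.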

[5] = molecular target: Collagenase 3 (Homo sapiens) (UniProt P45452); assay: NVS_ENZ_hMMP13: NovaScreen (NVS) Enzymatic Assay for human Matrix Metalloproteinase-13 (MMP13) (AID 2283182)
Summary of the method: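 Recombinant MMP13 cleaving fluorescent substrate, cell-free, measured 1 h after dosing. Primary duplicate screen at 25 uM; actives tested in concentration-response up to 50 uM; loss of signal relative to DMSO.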

[6] = molecular target: human Mitogen- and Stress-activated Protein Kinase-1 (Msk1), RPS6KA5 (gene 9252) (UniProt O75582); assay: NVS_ENZ_hMsk1: NovaScreen (NVS) Enzymatic Assay for human Mitogen- and Stress-activated Protein Kinase-1 (Msk1) (AID 2283187)
Summary of the method: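 Recombinant kinase with fluorescent substrate; product separated by electrophoretic mobility shift, read 1 h after dosing. Screened in duplicate at 25 uM; hits (e.g. ≥30% inhibition) tested in concentration–response up to 50 uM. DMSO baseline.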

[7] = molecular target: human Matrix Metalloproteinase-9 (MMP9), MMP9 (gene 4318) (UniProt P14780); assay: NVS_ENZ_hMMP9: NovaScreen (NVS) Enzymatic Assay for human Matrix Metalloproteinase-9 (MMP9) (AID 2283190);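 note: cell-free recombinant MMP9 protease activity read by fluorescent substrate signal; active means inhibition seen as loss of fluorescence signal versus DMSO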
Summary of the method: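 Screening concentration 25 uM, duplicate wells, then dose series for confirmation. Cell-free enzymatic reaction measured by fluorescence intensity 1 h post-dosing; decreased signal versus DMSO taken as activity.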

[8] = molecular target: human Matrix Metalloproteinase-7 (MMP7), MMP7 (gene 4316) (UniProt P09237); assay: NVS_ENZ_hMMP7: NovaScreen (NVS) Enzymatic Assay for human Matrix Metalloproteinase-7 (MMP7) (AID 2283183)
Summary of the method: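 Cell-free fluorescence enzymatic assay read 1 h after compound addition, activity loss analyzed against DMSO. Primary duplicate testing at 25 uM; compounds meeting threshold rerun in singleton concentration-response up to 50 uM.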

[9] = molecular target: human Matrix Metalloproteinase-3 (MMP3), MMP3 (gene 4314) (UniProt P08254); assay: NVS_ENZ_hMMP3: NovaScreen (NVS) Enzymatic Assay for human Matrix Metalloproteinase-3 (MMP3) (AID 2283185)
Summary of the method: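 Cell-free recombinant human MMP3 activity, fluorescence intensity read 1 h after dosing. Primary screen duplicate at 25 uM, actives retested in concentration series; loss of signal vs DMSO baseline.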

CCN(CC)CCOc1ccc(C(=C(Cl)c2ccccc2)c2ccccc2)cc1
AC50 [1]: active: 19.8 µM

CC(C)CCCCCCc1ccc(O)cc1
AC50 [1]: inconclusive: 0.815 µM
AC50 [2]: inconclusive: 25 µM

O=C1CCC(C2CCCCC2)CC1
AC50 [3]: inconclusive: 25 µM

CCc1c(C(=O)NN2CCCCC2)nn(-c2ccc(Cl)cc2Cl)c1-c1ccc(Br)cc1
AC50 [1]: inconclusive: 40.3 µM
AC50 [3]: inconclusive: 25 µM
AC50 [4]: inconclusive: 12 µM

C[C@]12C[C@H](O)[C@H]3[C@@H](CCC4=CC(=O)CC[C@@]43C)[C@@H]1CC[C@@H]2C(=O)CO
AC50 [3]: inconclusive: 25 µM
AC50 [5]: inconclusive: 25 µM

CCN(CC)CCNc1ccc(CNC=O)c2sc3ccc(OC)cc3c(=O)c12
outcome [1]: inactive
AC50 [6]: inconclusive: 8.25 µM
outcome [7]: inactive

Nc1ccc(S(=O)(=O)c2ccc(N)cc2)cc1
outcome [8]: inactive

CN(C)C(=O)Nc1ccc(Cl)c(Cl)c1
AC50 [1]: inconclusive: 25 µM
outcome [9]: inactive

O=C(N[C@@H](c1ccccc1)[C@@H]1CCCCN1)c1cccc(C(F)(F)F)c1Cl
outcome [1]: inactive

Cc1ccc(-c2cc(C(F)(F)F)nn2-c2ccc(S(N)(=O)=O)cc2)cc1
AC50 [1]: inconclusive: 25 µM

COCCO
AC50 [3]: inconclusive: 5.32 µM

COC(=O)c1ccccc1C(=O)O
outcome [1]: inactive

O=CCCCC=O
outcome [3]: inactive
